Experimental data: PubChem BioAssay AID743121 (NCATS, 2013)
The whole screen tested about 26,000 reagents; this is a random part of them. In the full data, 167 (0.63%) were called active. 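Calls are per gene from RSA p-values that are not deposited; an individual active-marked siRNA can sensitise only weakly.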 The numbers tell different reagents against one gene apart. Reagent sequences are not shown.

Screen: 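Partners whose loss is lethal together with topoisomerase I blockade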 (primary screen)
System: MDA-MB-231 cells, a human breast cancer line
Reagent: single siRNA against human genes, 20 nM siRNA (0.8 pmol per well)
Time to read-out: 120 h (drug added 48 h after transfection, read 72 h later)
Challenge: camptothecin 20 nM (about EC30) for 72 h; vehicle 0.1% DMSO in parallel plates
Measurement: 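CellTiter-Glo ATP signal, scaled to control siRNA as percent viability; sensitisation given as log2 of untreated divided by camptothecin-treated viability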
Direction: log2 vehicle/camptothecin viability: higher = stronger sensitisation to camptothecin; viability with camptothecin and viability without drug: higher = more viable cells
Call rule: 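Each gene scored by redundant siRNA activity (RSA) over its individual siRNA ratios; a gene is called active at p < 0.001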

The opening 8 records as a preview:
log2 vehicle/camptothecin viability	viability with camptothecin (% of control)	viability without drug (% of control)	Outcome	gene symbol	siRNA no.
0.178	66.5	75.2	inactive	CPLX2	1
-0.406	41.1	31	inactive	CPLX2	2
-0.413	91.7	68.9	inactive	CPLX2	3
0.046	97.1	100	inactive	CPLX2	4
-0.232	112	95.1	inactive	CDK5R1	1
0.0337	39.9	40.9	inactive	CDK5R1	2
0.0935	86.1	91.8	inactive	CDK5R1	3
0.126	42.5	46.4	inactive	CDK5R1	4

The listing, repeating the preview:
log2 vehicle/camptothecin viability	viability with camptothecin (% of control)	viability without drug (% of control)	Outcome	gene symbol	siRNA no.
0.178	66.5	75.2	inactive	CPLX2	1
-0.406	41.1	31	inactive	CPLX2	2
-0.413	91.7	68.9	inactive	CPLX2	3
0.046	97.1	100	inactive	CPLX2	4
-0.232	112	95.1	inactive	CDK5R1	1
0.0337	39.9	40.9	inactive	CDK5R1	2
0.0935	86.1	91.8	inactive	CDK5R1	3
0.126	42.5	46.4	inactive	CDK5R1	4
0.29	30.5	37.4	inactive	PLA1A	1
-0.0658	98.3	93.9	inactive	PLA1A	2
0.135	76	83.5	inactive	PLA1A	3
-0.161	82.2	73.6	inactive	PLA1A	4
-0.307	71.7	57.9	inactive	VSIG2	1
0.113	18.5	20.1	inactive	VSIG2	2
-0.0325	27.9	27.3	inactive	VSIG2	3
0.0363	98.6	101	inactive	SIRT7	1
-0.246	28.7	24.2	inactive	SIRT7	2
-0.113	67.9	62.8	inactive	SIRT7	3
-0.226	42.8	36.6	inactive	TREM2	1
-0.566	68	45.9	inactive	TREM2	2
0.779	51.1	87.7	inactive	TREM2	3
0.0239	87.1	88.6	inactive	TREM2	4
-0.215	58.8	50.6	inactive	SH2D3C	1
-0.0647	86.6	82.8	inactive	SH2D3C	2
-0.575	49.2	33	inactive	SH2D3C	3
-0.405	50.5	38.1	inactive	SH2D3C	4
-0.17	107	95.2	inactive	DUS2	1
0.175	88.6	100	inactive	DUS2	2
0.547	45	65.8	inactive	DUS2	3
-0.0695	77.8	74.1	inactive	DUS2	4
0.00902	73.1	73.5	inactive	TOLLIP	1
-0.0505	62.1	60	inactive	TOLLIP	2
0.319	90	112	inactive	TOLLIP	3
-0.145	82	74.2	inactive	TOLLIP	4
-0.0313	90.2	88.3	inactive	DNAJB7	1
-0.55	54.6	37.3	inactive	DNAJB7	2
0.421	75.3	101	inactive	DNAJB7	3
-0.316	68.9	55.4	inactive	ACAT2	1
-0.15	85.6	77.2	inactive	ACAT2	2
-0.064	37	35.4	inactive	ACAT2	3
0.21	61.6	71.3	inactive	ACAT2	4
-0.144	91.2	82.6	inactive	H1-0	1
0.24	84.1	99.3	inactive	H1-0	2
0.138	67	73.8	inactive	H1-0	3
-0.0772	29.1	27.6	inactive	GRIP1	1
-0.577	87.4	58.6	inactive	GRIP1	2
-0.162	93.9	83.9	inactive	GRIP1	3
0.629	28.2	43.6	inactive	SET	1
-0.521	81.8	57	inactive	SET	2
-0.00715	78.1	77.7	inactive	SET	3
0.0558	59.7	62	inactive	SET	4
-0.315	74.3	59.8	inactive	BAG1	1
-0.0249	48.6	47.8	inactive	BAG1	2
0.347	76.7	97.5	inactive	BAG1	3
0.623	26.1	40.2	inactive	BAG1	4
-0.301	53.2	43.2	inactive	PKD1	1
0.0954	93.2	99.6	inactive	PKD1	2
0.0273	89.1	90.8	inactive	PKD1	3
-0.291	127	104	inactive	PKD1	4
-0.376	61.9	47.7	inactive	TPTE2	1
-0.294	75.8	61.8	inactive	TPTE2	2
0.308	66.2	81.9	inactive	TPTE2	3
-0.553	87.8	59.9	inactive	TPTE2	4
-0.114	87.1	80.5	inactive	ADAM12	1
-0.531	50.6	35	inactive	ADAM12	2
-0.232	118	100	inactive	ADAM12	3
-0.136	103	93.3	inactive	ADAM12	4
-0.165	45.1	40.2	inactive	APOF	1
-0.189	104	91.2	inactive	APOF	2
-0.388	77.2	59	inactive	APOF	3
-0.335	60.5	48	inactive	APOF	4
